Experimental data reported in patent publication US10759740B2, “Antibacterial agents” (Rutgers, The State University of New Jersey, priority 2016, dated 2020).

Legend:
[1] = test system: Human foreskin fibroblast (HFF) cells; format: cell-based; settings: for S.I. G− (IC50/MIC): IC50/MIC using E. coli; for S.I. G+ (IC50/MIC): IC50/MIC using S. aureus
Procedure: HFFs were cultured in DMEM supplemented with 10% fetal bovine serum, 1% penicillin/streptomycin and plated at a concentration of 10,000 cells/well in 96-well plate. Plates were incubated at 37° C. and 5% CO2 for 24 h to allow cell attachment prior to use.
CAMs were tested for cytotoxicity against HFFs using a tetrazolium-based colorimetric assay (MTT). CAMs were first dissolved in ddH2O and then diluted in cell medium (DMEM supplemented with 1% penicillin/streptomycin) to reach concentrations of 15.6, 3.9, and 0.95 μg/mL. 100 μL cell media containing CAMs were then added to allocated wells in a 96-well plate. Cells treated with only 1% Triton X-100 and cell medium were used as positive and negative controls, respectively. After 24 h incubation, the medium was removed and replaced with fresh medium. 20 μL of MTT reagent (12 mM in PBS) was then added to each well and further incubated for 4 h at 37° C. Formazan crystals were subsequently dissolved in 100 μL acidified SDS solution at 37° C. for 4 h. […] The following is used to calculate the percent of cell viability of HFFs: […]

[2] = test system: Human red blood cells (RBCs); settings: for S.I. G− (HC50/MIC): HC50/MIC using E. coli; for S.I. G+ (HC50/MIC): HC50/MIC using S. aureus

SMILES	S.I. G− (IC50/MIC) [1]	S.I. G+ (IC50/MIC) [1]	S.I. G− (HC50/MIC) [2]	S.I. G+ (HC50/MIC) [2]
CCCCCCCCCCOC(C(=O)NCCN)C(OCCCCCCCCCC)C(=O)NCCN.Cl.Cl (centres unmarked) [5b]	1.4	5.9	17	68
CCCCCCCCCCCCOC(C(=O)NCCN)C(OCCCCCCCCCCCC)C(=O)NCCN.Cl.Cl (centres unmarked) [5c]	–	–	–	>64
CCCCCCCC(=O)OC(C(=O)NCCN)C(OC(=O)CCCCCCC)C(=O)NCCN.Cl.Cl (centres unmarked) [8a]	0.9	1.8	2	4
CCCCCCCCCC(=O)OC(C(=O)NCCN)C(OC(=O)CCCCCCCCC)C(=O)NCCN.Cl.Cl (centres unmarked) [8b]	1.7	7.3	11	43
CCCCCCCCCCCC(=O)OC(C(=O)NCCN)C(OC(=O)CCCCCCCCCCC)C(=O)NCCN.Cl.Cl (centres unmarked) [8c]	–	–	–	>16
